No constants are given. Whether binding was seen depends on the method and setting. For some of these results: Binding seen in cells or lysates may run through a third protein. Some binding calls cover weakened binding; strength is not graded here. For some of these results: Sequences can lack the tags named with a protein.
Key:
[1] = molecular target: GST-SIRT6 (human), Q8N6T7; assay: pull-down; conditions: remark: other sources report otherwise
[2] = molecular target: GST-SIRT6 (human), Q8N6T7; assay: pull-down; conditions: remark: other sources report otherwise; remark: listed apart in the source
[3] = molecular target: His-SIRT1 (UniProt Q96EB6); assay: pull-down
[4] = molecular target: endogenous SIRT6 (human (endogenous in HEK293 and HeLa)), Q8N6T7; assay: co-IP; conditions: remark: other sources report otherwise

B1: His-SIRT1, Q96EB6 (protein)
chain: MADEAALALQPGGSPSAAGADREAASSPAGEPLRKRPRRDGPGLERSPGEPGGAAPEREVPAAARGCPGAAAAALWREAEAEAAAAGGEQEAQATAAAGEGDNGPGLQGPSREPPLADNLYDEDDDDEGEEEEEAAAAAIGYRDNLLFGDEIITNGFHSCESDEEDRASHASSSDWTPRPRIGPYTFVQQHLMIGTDPRTILKDLLPETIPPPELDDMTLWQIVINILSEPPKRKKRKDINTIEDAVKLLQECKKIIVLTGAGVSVSCGIPDFRSRDGIYARLAVDFPDLPDPQAMFDIEYFRKDPRPFFKFAKEIYPGQFQPSLCHKFIALSDKEGKLLRNYTQNIDTLEQVAGIQRIIQCHGSFATASCLICKYKVDCEAVRGDIFNQVVPRCPRCPADEPLAIMKPEIVFFGENLPEQFHRAMKYDKDEVDLLIVIGSSLKVRPVALIPSSIPHEVPQILINREPLPHLHFDVELLGDCDVIINELCHRLGGEYAKLCCNPVKLSEITEKPPRTQKELAYLSELPPTPLHVSEDSSSPERTSPPDSSVIVTLLDQAAKSNDDLDVSESKGCMEEKPQEVQTSRNVESIAEQMENPDLKNVGSSTGEKNERTSVAGTVRKCWPNRVAKEQISRRLDGNQYLFLPPNRYIFHGAEVYSDSEDDVLSSSSCGSNSDSGTCQSPSLEEPMEDESEIEEFYNGLEDEPDVPERAGGAGFGTDGDDQEAINEAISVKQEVTDMNYPSNKS
- binding [1]: binds
- binding [2]: binds

Binder: PEELERKVWELARL (acetyl-lysine at SIRT6 K33 (K(ac), seventh residue of the peptide)) [K33ac peptide, a 14-aa peptide containing acetylated SIRT6 K33]
- binding [3]: binds

B2: endogenous SIRT1, Q96EB6 (protein)
chain: MADEAALALQPGGSPSAAGADREAASSPAGEPLRKRPRRDGPGLERSPGEPGGAAPEREVPAAARGCPGAAAAALWREAEAEAAAAGGEQEAQATAAAGEGDNGPGLQGPSREPPLADNLYDEDDDDEGEEEEEAAAAAIGYRDNLLFGDEIITNGFHSCESDEEDRASHASSSDWTPRPRIGPYTFVQQHLMIGTDPRTILKDLLPETIPPPELDDMTLWQIVINILSEPPKRKKRKDINTIEDAVKLLQECKKIIVLTGAGVSVSCGIPDFRSRDGIYARLAVDFPDLPDPQAMFDIEYFRKDPRPFFKFAKEIYPGQFQPSLCHKFIALSDKEGKLLRNYTQNIDTLEQVAGIQRIIQCHGSFATASCLICKYKVDCEAVRGDIFNQVVPRCPRCPADEPLAIMKPEIVFFGENLPEQFHRAMKYDKDEVDLLIVIGSSLKVRPVALIPSSIPHEVPQILINREPLPHLHFDVELLGDCDVIINELCHRLGGEYAKLCCNPVKLSEITEKPPRTQKELAYLSELPPTPLHVSEDSSSPERTSPPDSSVIVTLLDQAAKSNDDLDVSESKGCMEEKPQEVQTSRNVESIAEQMENPDLKNVGSSTGEKNERTSVAGTVRKCWPNRVAKEQISRRLDGNQYLFLPPNRYIFHGAEVYSDSEDDVLSSSSCGSNSDSGTCQSPSLEEPMEDESEIEEFYNGLEDEPDVPERAGGAGFGTDGDDQEAINEAISVKQEVTDMNYPSNKS
- binding [4]: binds
